Experimental data from the supplement of paper PMC5407854, “Inhibitor of ppGalNAc-T3-mediated O-glycosylation blocks cancer cell invasiveness and lowers FGF23 levels” (eLife, 2017).
± gives the standard deviation of the averaged measurements. Whole data set: some 1,700 compounds, median “T2 sensor activation Q score (MG/GFP ratio z-score vs DMSO controls)” near 0.3, cut for the highest 2% near 1.9. Some of the results follow.

test system: ppGalNAc-T2 sensor; assay: T2 sensor activation Q score (MG/GFP ratio z-score vs DMSO controls) (SD units); higher = more sensor activation (inhibition of ppGalNAc-T2 glycosylation); conditions: HEK293 sensor cells; 10 µM; 6 h
Experimental: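 Cells were treated with compound at 10 uM for 6 h, then MG/GFP ratio was read by flow cytometry (10,000 cells per well, duplicate wells). Q = (R - R_neg)/SD_neg relative to DMSO vehicle controls; the signal rises when the glycosyltransferase is inhibited.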

Structure (SMILES)	T2 sensor activation Q score
C=CC1CN2CCC1CC2C(O)c1ccnc2ccc(OC)cc12 (configuration not stated)	-1.25
CCOC(=O)c1ccc2c(c1)NCc1cccc(OC)c1O2	1.6
COc1cc(NC(C)=O)c2ncccc2c1NC(C)=O	1.4
COc1ccc(Nc2cc(Cl)ccc2C(=O)O)cn1	2.25
COc1cc(OC)c2c(=O)cc(-c3cccnc3)oc2c1	0.8
CN1CCC(=C(c2ccc(Cl)cc2)c2ccccn2)CC1	-0.05
Cc1nn(-c2ccccc2)nc1C(=O)Nc1ccc2[nH]ncc2c1	-1.55
O=C(C=C=Nc1ccccc1)C(=O)N=C=Cc1ccccc1	-0.9
Cc1ccc(C)c(-n2c(-c3ccc(Br)cc3)csc2=NC(=O)c2ccccc2F)c1	0.05
COc1ccc(NC2=NC(C)(CO)CS2)cc1 (configuration not stated)	0.5
O=C(Nc1ccc(F)cc1)OCCOc1ccc([N+](=O)[O-])cc1	-0.75
CC(C)(C)c1ccc(NS(=O)(=O)c2ccc(N)cc2)cc1	-1.55
CCNc1ccccc1C(=O)O	-0.2
CN(C)c1ccc(/C=N\NC(=O)c2cnc3ccccc3c2)cc1	-0.3
NC(=O)CCC(C(=O)O)N1C(=O)c2ccc(O)cc2C1=O (configuration not stated)	1.15
CC(C)(C)c1ccc(C(=O)N2CCOC23CCCCC3)cc1	-0.9
Cc1ccc(N=Nc2ccc(C)cc2NC(=O)Nc2ccccc2F)cc1	0
Cc1ccc(S(=O)(=O)CCOC(=O)CNC(=O)OCc2ccccc2)cc1	-0.1
Nc1nc(Cl)nc2c1ncn2[C@@H]1O[C@H](CO)[C@@H](O)[C@@H]1F	-0.85
Cc1nc2ccc(N)nc2nc1C	-0.65
CCOC(=O)C(=CNc1ccccc1Cl)C(=O)OCC	0.75
C/C(=N/O)[C@H]1CC[C@H]2[C@@H]3CC[C@@H]4C/C(=N\O)CC[C@]4(C)[C@H]3[C@@](C)(O)C[C@]12C	0.5
COc1ccc(OCC(O)CN2CCN(c3ccc(Cl)cc3)CC2)cc1 (configuration not stated)	0.25
C=C1SC(=Nc2c(C)cccc2Cl)N(C(=O)c2sc3ccccc3c2Cl)C12CCCCC2	1.1
COc1c(NC=O)c2c(c([N+](=O)[O-])c1OC)C(=O)OC2	1.65

Structure (SMILES)	T2 sensor activation Q score
Cc1ccccc1NC(=S)Nc1ccccn1	-0.5
O=S1(=O)CSCS(=O)(=O)C1	0.3
O=C1c2ccccc2C(=Cc2cccnc2)c2ccccc21	0.2
Cc1ccc(C)c(C(=O)CCC(=O)O)c1	-0.7
O=C(Nc1ccc(Nc2ccncc2)cc1)c1ccc(Nc2ccnc3ccc([N+](=O)[O-])cc23)cc1	-0.755
CSc1nc(=S)cc(C)[nH]1	0.1
CCCOc1ccc(-c2nc(-c3ccc([N+](=O)[O-])cc3)cs2)cc1	0.85
Cc1[nH]c(=S)[nH]c(=O)c1CCC1OCCO1	1.45
CC(C)(C)N1CC(OC(N)=O)C1	0.7
NC(=O)Oc1cccc(OC(N)=O)c1	0.85
Cc1ccc(NCCN(C)C)c2c(=O)c3cc(O)ccc3sc12	-2.35
c1ccc2c(c1)[nH]c1c3ccccc3sc21	0
COc1c(NC(C)=O)c2ccccc2c2ccccc12	0.45
COc1ccccc1NC(=O)Oc1cccc(OC(=O)c2ccccc2)c1	0.2
Nc1c(Cl)cc(S(N)(=O)=O)cc1S(N)(=O)=O	1.1
Cc1ccc(N=Nc2c(O)c3ccccc3[nH]c2=O)c(S(=O)(=O)N(C)C)c1	0.3
CCN(CC)CCN1C(=O)c2cccc3cc(N)cc(c23)C1=O	0.75
Cc1cccc2c1c1ccc3c(c1n2C)C(=O)C=CC3=O	-0.15
O=c1[nH]cc(I)cc1I	-0.4
Cc1cc(NC(=O)c2ccccc2)c(Cl)cc1N	-1.4
O=C(c1ccc(O)cc1)c1ccc(C(=O)c2ccc(O)cc2)cc1	-0.25
c1ccc(-c2nn(-c3ccccc3)[n+](-c3ccccc3)n2)cc1	0.4
COc1cc(Cl)c(CC(=O)c2c[nH]c3ccccc23)cc1OC	1
Nc1ccc(C(=O)Nc2cccc(N)c2)cc1	-0.5
O=C(COc1ccc([N+](=O)[O-])cc1Cl)N1CCOCC1	-0.05

Structure (SMILES)	T2 sensor activation Q score
C#CC(c1ccccc1)(c1ccccc1)n1ccnc1	1.05
Nc1ncn([C@@H]2O[C@H](CO)[C@@H](O)[C@H]2O)c(=O)n1	-0.15
Clc1ccc(-c2nc(-c3cc4cc(Cl)ccc4o3)cs2)cc1	0.65
CC1CC(C)(C)C2=NCCN21 (configuration not stated)	1.3
O=C1CCC(c2ccccc2)(c2ccccc2)CC1	-0.25
CC1=NN(c2ccccc2)C(=O)C1N=Nc1ccc(S(N)(=O)=O)cc1 (configuration not stated)	0.6
O=c1cc(N=Nc2ccc(Cl)cc2)[nH]c(=O)[nH]1	1.6
CCCCC[C@H](O)/C=C/[C@@H]1[C@@H](C/C=C\CCCC(=O)O)[C@@H](O)C[C@H]1O	0.6
COc1cccc(NC(=S)Nc2ccc(O)cc2)c1	-1.2
Cc1ccn2c(C(C)O)nnc2c1 (configuration not stated)	0.8
O=C(O)CCC(=O)c1ccc2ccc3cccc4ccc1c2c34	1.35
Nc1ccc(C(=O)Nc2ccc(Nc3ccncc3)cc2)cc1	1.85
c1ccc(-n2ncc3cccnc32)cc1	-0.25
O=[N+]([O-])c1c(N2CCN(CCO)CC2)nc2ccccn12	0.7
CCC(C)NC(=O)CC(C)C (configuration not stated)	1.8
COc1ccc(-c2cc3ccccc3[nH]2)cc1	0.9
O=c1[nH]c(=S)c2ncn(-c3ccccc3)c2[nH]1	-1.3
CCCN(CCC)CC(=O)N1CC(=O)Nc2ccccc21	-1.75
Cc1ccnc(NC(c2ccccc2)c2ccc3cccnc3c2O)c1 (configuration not stated)	-1.9
Nc1ccnn1-c1ccccc1	-0.15
C[C@@H]1O[C@@H](Oc2c(-c3cc(O)c(O)c(O)c3)oc3cc(O)cc(O)c3c2=O)[C@H](O)[C@H](O)[C@H]1O	1.8
O=C1C(=Nc2cccc(Cl)c2)CC(c2ccc(Cl)cc2)N1c1cccc(Cl)c1 (configuration not stated)	-0.2
Cc1ccc(C(=O)Nc2ccc(CN3CCN(C)CC3)c(C(F)(F)F)c2)cc1C#Cc1cnc2cccnn12	0.5
N#CCc1cnc2ccccc2n1	-0.35
O=C(Nc1cccnc1)c1cccc([N+](=O)[O-])c1	-0.2

Structure (SMILES)	T2 sensor activation Q score
O=C(O)/C=C\C(=O)Nc1ccc(-c2ccccc2)cc1	0.1
O=C(c1ccc(Cl)nc1)c1cccs1	0.8
c1ccc2[nH]c(-c3ccncc3)nc2c1	-1.1
O=c1ccc(Cl)n[nH]1	1.45
Cc1cc(C)n(C(N)=NC(=O)c2ccc([N+](=O)[O-])cc2)n1	0.9
Cc1ccc(-c2nc(-c3nccc4ccccc34)oc2-c2ccccc2)cc1	0.35
S=c1nc[nH]c2c1ncn2C1CCCC1	1.4
Cc1ccc([N+](=O)[O-])cc1NC(=O)Nc1ccc(S(N)(=O)=O)cc1	1.2
COc1cccc(OCC(O)CN2CCN(c3ccccc3)CC2)c1 (configuration not stated)	0.55
CCOC(=O)Cc1cc(=O)[nH]n(-c2ccccc2)c1=O	0.75
O=C(Nc1nc2ccccc2s1)Nc1ccc([N+](=O)[O-])cc1Cl	0.35
Cc1ccc(C#CC(C)(O)C(C)(C)C)cn1 (configuration not stated)	-0.05
COc1cc2nccc(Oc3ccc(NC(=O)C4(C(=O)Nc5ccc(F)cc5)CC4)cc3)c2cc1OC	0.85
COc1cc2c(c(OC)c1O)C(=O)CO2	0.55
COc1ccc(C2OC3=C(Nc4cc(C)c(C)cc4N3)C2=O)cc1 (configuration not stated)	-0.5
CO[C@@]12[C@H](COC(N)=O)C3=C(C(=O)C(C)=C(N)C3=O)N1C[C@@H]1N[C@@H]12	0.425 ± 1.7
OCC(O)C1OCOC(C(O)CO)C1O (configuration not stated)	-1.85
c1ccc(-c2nnc(-c3ccccn3)s2)nc1	1.2
Cc1ccc(N=Nc2c(O)ccc3n[nH]nc23)cc1	0.9
Clc1nc(Oc2ccccc2)nc(-c2cn(-c3ccccc3)c3ccccc23)n1	0.05
Nc1n[nH]c(-c2ccccc2)n1	0.75
COc1ccc2nc3cc(Cl)ccc3c(C#N)c2c1	-0.2
N#C/C(=C\c1ccc[nH]1)C(=O)c1ccccc1	0.6
C=CCOc1ccnc(-c2ccccc2)n1	1.6
Oc1ccccc1-n1c(-c2ccccc2)ccc1-c1ccccc1	0.4

Look-ups from the entries so far:
`c1ccc(-c2nnc(-c3ccccn3)s2)nc1` | T2 sensor activation Q score: 1.2
`Cc1ccc(C#CC(C)(O)C(C)(C)C)cn1` (configuration not stated) | T2 sensor activation Q score: -0.05
`O=C(O)/C=C\C(=O)Nc1ccc(-c2ccccc2)cc1` | T2 sensor activation Q score: 0.1
`Oc1ccccc1-n1c(-c2ccccc2)ccc1-c1ccccc1` | T2 sensor activation Q score: 0.4
`N#C/C(=C\c1ccc[nH]1)C(=O)c1ccccc1` | T2 sensor activation Q score: 0.6

Next part:

Structure (SMILES)	T2 sensor activation Q score
C(=C\c1ccccn1)/c1ccccn1	2.1
CC(=O)OCc1cc(-c2nc3ccccc3[nH]c2=O)nn1-c1ccc(Cl)cc1	-0.35
CC1CC(O)C2C3(C)CCCC2(COC3=O)C12CCC1(CCOC1=O)O2 (configuration not stated)	0.55
c1ccc(-c2ccc(-c3nccc4ccccc34)[nH]2)cc1	-0.2
N#CC1C=Cc2c(ccc3ccccc23)N1C(=O)c1ccccc1 (configuration not stated)	1.45
Cc1cc(=O)oc2cc(OS(C)(=O)=O)ccc12	1.2
Cc1ccc(C(C)C)cc1NC(=O)Nc1ccc([N+](=O)[O-])cc1	-0.3
COc1ccc(CN2CCOC2=O)cc1OC	0.95
ONC(=NCc1ccccc1)c1ccccc1	0.45
c1ccc(-c2ccc3c(c2)NCCN3)cc1	0.25
O=c1oc(-c2ccccc2)c(-c2ccccc2)c2ccccc12	1.4
CSc1cccc(NC(=O)Nc2nc3c(C)cccc3s2)c1	-0.85
O=C(Oc1ccccc1)c1cccc2cccc(C(=O)Oc3ccccc3)c12	1.05
O=C(NC1CCCCC1)c1cc2ccccc2cc1O	0.1
Nc1nc(N)c2cc(Sc3ccc4ccccc4c3)ccc2n1	-1.95
Clc1ccc(-c2c(C3=NCCCN3)nnn2-c2ccc(Cl)cc2)cc1	-0.9
CCOC(=O)c1c(NC(=S)NC)sc2c1CCCC2	1.7
COC1=C[C@@H](C)[C@@H]2C[C@H]3OC(O)C[C@H]4C(C)=C(OC)C(=O)[C@H]([C@@]2(C)C1=O)[C@@]34C (some centres not stated)	-0.05
O=C(Nc1cccc(-c2nc3ccccc3[nH]2)c1)c1ccc(C(=O)Nc2cccc(-c3nc4ccccc4[nH]3)c2)cc1	3
c1ccc(-c2nnc3nc(N4CCCCC4)nc(N4CCCCC4)n23)cc1	1.35
CCN(CC)CCN1c2ccccc2Sc2ccc3ccccc3c21	-0.8
Cc1cccc(N2CCN(CC(O)COc3ccc(Cl)cc3)CC2)c1 (configuration not stated)	0.45
